We go through three molecules from patent US20140051815A1, “ORGANIC SULFONIC ACID COMPOUND, DOPANT HAVING SAME, AND CONDUCTIVE POLYMER COMPLEX HAVING THE DOPANT” (Ajou University Industry-Academic Cooperation Foundation, priority 2011, published 2014).

This series in a line: Electrical conductivity of doped polyaniline (ES) films, four-point probe. Type of series: physicochemical. Particulars: for Conductivity: polyaniline doped with dopant; for Conductivity of CSA + dopant in m-cresol: polyaniline with CSA + dopant (10%), or CSA alone. As for the experimental part:
Before a polyaniline film was manufactured, a polyaniline (ES) solution was prepared as follows. In order to prepare polyaniline (ES) solutions respectively doped with the dopant I to the dopant VI, a molar ratio of a polyaniline (EB) tetramer unit to each of the dopant I to the dopant VI was set to 1:2 and a total content of them was set to 1.5 wt. % with respect to m-cresol as a solvent. A mixture of the polyaniline (EB) with each of the dopant I to the dopant VI was uniformly grounded and mixed in a mortar for 30 minutes. The mixture powder was put into each of solvents NMP and m-cresol and dissolved at a speed of 24,000 rpm for 10 minutes by using a homogenizer. Each of the prepared solutions was put on a glass plate on a hot plate set to from 40° C. to 50° C. and dried for 48 hours or more so as to manufacture a film. The glass plate (2.5 cm×2.5 cm×0.1 cm) was immersed in aqua regia for 4 hours or more and then taken out to wash a surface thereof with secondary distilled water and ethanol before use.
Then, with respect to each film prepared, conductivity and sheet resistance were measured and results thereof are as shown in the following Tables 1 to 3.
The conductivity was measured by using a four-point probe method in order to remove contact resistance between a gold wire electrode and a sample. The film and the gold wire were brought into contact with each other by using carbon paste. A thickness of the film was measured by using a micrometer produced by Mitutoy.
A current and a voltage were measured by using a Source-Measure Units Model 237 produced by Keithley Instruments. According to the measurement method, when a constant source current (I, DC) was applied to two outside terminals, a voltage difference (V) caused by the application was measured at the two inside terminals.
Electrical conductivity was calculated by using the following formula.
When electrical conductivity of a very thin sample such as a semiconductor wafer or a conductive coating was measured, the measurement was carried out by using a collinear four-point probe method.
A collinear four-point probe was purchased from Jandel Engineering Ltd. and used. This probe was connected to the Source-Measure Units Model 237 produced by Keithley Instruments. The measurement was carried out in the same manner as the four-probe method, and a calculation formula was as follows.
In Tables 1 to 3, the term “over” described with respect to conductivity means that measurement cannot be made at a conductivity of 10^−3 S/cm or less, and the term “over” described with respect to sheet resistance means that measurement cannot be made at a sheet resistance of 10^5Ω or more.

The mark [1] stands for this setting: m-cresol, 1.2 μm Filter: Mixed for 30 minutes.
The mark [2] stands for this setting: m-cresol, 1.2 μm Filter: Not mixed.

`CC1(C)C2CC[C@@]1(CS(=O)(=O)O)C(=O)C2` [CSA, (1S)-(+)-10-camphorsulfonic acid, reference compound] yielded a Conductivity (NMP, 1.2 μm Filter: Mixed for 30 minutes) of 21.56 S/cm. Moreover, the “Conductivity of CSA + dopant in m-cresol” value (m-cresol) came out at 247 S/cm.
With `O=S(=O)(O)CCCOc1ccc(O)cc1` [Dopant II], the Conductivity entry is recorded as “OVER (measurement cannot be made at a conductivity of 10^−3 S/cm or less)” under setting [1] and “OVER (measurement cannot be made at a conductivity of 10^−3 S/cm or less)” under setting [2]. Further, the “Conductivity of CSA + dopant in m-cresol” value (m-cresol) worked out at 211 S/cm.
Regarding `Cc1cccc(OCCCS(=O)(=O)O)c1` [Dopant I], the Conductivity is reported as 59.66 S/cm under setting [1] and “OVER (measurement cannot be made at a conductivity of 10^−3 S/cm or less)” under setting [2]. The “Conductivity of CSA + dopant in m-cresol” value (m-cresol) is on record as 179 S/cm.
